Common to all, as to assay: affinity purification with mass spectrometry
Assay [1] concerns the target Terf2 (mouse) (mouse (endogenous in liver and R1/E embryonic stem cells)) (UniProt O35144).
The target is the same in assay [2]. The source holds these as a separate data set.
For assay [3], the target named is TERF2 (human (endogenous in U2OS)) (UniProt Q15554).
Assay [4] addresses T1, TERF2 (human (endogenous in U2OS)), Q15554.
T1 chain: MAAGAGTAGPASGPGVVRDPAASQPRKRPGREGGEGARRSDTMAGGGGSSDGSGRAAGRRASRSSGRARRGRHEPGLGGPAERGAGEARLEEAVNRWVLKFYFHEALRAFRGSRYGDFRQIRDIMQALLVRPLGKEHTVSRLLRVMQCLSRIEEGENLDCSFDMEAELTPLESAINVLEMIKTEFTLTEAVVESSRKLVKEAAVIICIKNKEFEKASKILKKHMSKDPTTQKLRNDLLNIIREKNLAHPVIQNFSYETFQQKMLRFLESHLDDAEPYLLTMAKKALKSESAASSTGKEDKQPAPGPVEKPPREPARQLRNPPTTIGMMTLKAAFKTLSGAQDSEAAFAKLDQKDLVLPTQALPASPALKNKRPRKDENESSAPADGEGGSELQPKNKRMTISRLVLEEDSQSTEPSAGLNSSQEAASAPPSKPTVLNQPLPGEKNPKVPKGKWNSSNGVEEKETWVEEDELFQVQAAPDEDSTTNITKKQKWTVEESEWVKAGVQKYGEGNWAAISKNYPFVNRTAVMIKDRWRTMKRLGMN
The settings on record: remark: other sources report otherwise.

Sequences of proteins named here, by UniProt entry; tags and fusion partners are left off.
UniProt O35144: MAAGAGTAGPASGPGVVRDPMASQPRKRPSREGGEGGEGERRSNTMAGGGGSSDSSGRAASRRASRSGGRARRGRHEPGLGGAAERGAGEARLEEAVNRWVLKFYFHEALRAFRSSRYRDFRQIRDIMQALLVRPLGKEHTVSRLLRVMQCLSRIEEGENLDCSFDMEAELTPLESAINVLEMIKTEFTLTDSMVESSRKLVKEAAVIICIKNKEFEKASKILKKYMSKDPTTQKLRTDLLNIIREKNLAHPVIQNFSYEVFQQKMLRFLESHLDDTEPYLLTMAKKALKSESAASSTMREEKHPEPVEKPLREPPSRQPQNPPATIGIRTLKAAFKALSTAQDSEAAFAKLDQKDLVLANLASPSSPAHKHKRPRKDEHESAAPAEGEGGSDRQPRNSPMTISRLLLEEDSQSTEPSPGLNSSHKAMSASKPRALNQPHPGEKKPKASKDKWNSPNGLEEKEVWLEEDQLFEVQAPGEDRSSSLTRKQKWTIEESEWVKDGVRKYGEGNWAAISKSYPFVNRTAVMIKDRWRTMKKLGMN

Read-outs that look alike come from different tables or passages of the source. These are yes or no findings as the source states them, for the method shown. Binding seen in cells or lysates may run through a third protein. Here binding means that the protein was enriched with, or labelled near, the bait; the list need not be complete.

B1: TINF2 (mouse shelterin member) (protein, UniProt Q9QXG9 1-341)
chain: MAPPPGVGPASLRFAAAASWLVVRRRRVEHFPKVVEFLQSLRAAAPGLVCYRHHERLCMSLKAKVVVELILQARPWDQVLNALKHHFPAESRTTKEDRKLLEARENFCLLVKHLSEDPPSSLQELEQDYGESFLVAMEKLLFEYLCQLEKALPPVRAQELQDALSWSQPGSFITSSVALHQYGMDMGWTFPESSTSGSGNLIEPMEESPHQQTRPAFHSPLPKAKLGPHQPASLEHPEHLAGHRFNLAPLGKRKSRSHWTSAKACHKERPTVMLLPFRNMGLPAQDLSNPKSREEPGAASAASVGTEPVCTEEAKTPSRPLGKRALEETPPDSPAASRRTV
Take B1: the binding result in assay [1] and in assay [2] was “binds” each time.

B2: TINF2 (protein, UniProt Q9BSI4 1-451)
chain: MATPLVAGPAALRFAAAASWQVVRGRCVEHFPRVLEFLRSLRAVAPGLVRYRHHERLCMGLKAKVVVELILQGRPWAQVLKALNHHFPESGPIVRDPKATKQDLRKILEAQETFYQQVKQLSEAPVDLASKLQELEQEYGEPFLAAMEKLLFEYLCQLEKALPTPQAQQLQDVLSWMQPGVSITSSLAWRQYGVDMGWLLPECSVTDSVNLAEPMEQNPPQQQRLALHNPLPKAKPGTHLPQGPSSRTHPEPLAGRHFNLAPLGRRRVQSQWASTRGGHKERPTVMLFPFRNLGSPTQVISKPESKEEHAIYTADLAMGTRAASTGKSKSPCQTLGGRALKENPVDLPATEQKENCLDCYMDPLRLSLLPPRARKPVCPPSLCSSVITIGDLVLDSDEEENGQGEGKESLENYQKTKFDTLIPTLCEYLPPSGHGAIPVSSCDCRDSSRPL
Regarding B2, the binding result in assay [3] is on record as “binds”.

B3: POT1 (protein, UniProt Q9NUX5 1-634)
chain: MSLVPATNYIYTPLNQLKGGTIVNVYGVVKFFKPPYLSKGTDYCSVVTIVDQTNVKLTCLLFSGNYEALPIIYKNGDIVRFHRLKIQVYKKETQGITSSGFASLTFEGTLGAPIIPRTSSKYFNFTTEDHKMVEALRVWASTHMSPSWTLLKLCDVQPMQYFDLTCQLLGKAEVDGASFLLKVWDGTRTPFPSWRVLIQDLVLEGDLSHIHRLQNLTIDILVYDNHVHVARSLKVGSFLRIYSLHTKLQSMNSENQTMLSLEFHLHGGTSYGRGIRVLPESNSDVDQLKKDLESANLTANQHSDVICQSEPDDSFPSSGSVSLYEVERCQQLSATILTDHQYLERTPLCAILKQKAPQQYRIRAKLRSYKPRRLFQSVKLHCPKCHLLQEVPHEGDLDIIFQDGATKTPDVKLQNTSLYDSKIWTTKNQKGRKVAVHFVKNNGILPLSNECLLLIEGGTLSEICKLSNKFNSVIPVRSGHEDLELLDLSAPFLIQGTIHHYGCKQCSSLRSIQNLNSLVDKTSWIPSSVAEALGIVPLQYVFVMTFTLDDGTGVLEAYLMDSDKFFQIPASEVLMDDDLQKSVDMIMDMFCPPGIKIDAYPWLECFIKSYNVTNGTDNQICYQIFDTTVAEDVI
On to B3, for which the binding result in assay [3] is “binds”.

B4: ACD (mouse shelterin member) (protein, UniProt Q5EE38 1-416)
chain: MSDSGLLALQPWIRELILGSETLSSPRTGQLLKVLQDSETPGPSSAPDTPDTGAVLLVSDGTHSVRCVVTRNAIDTSDWEEKELGFRGTEGRLLLLQACGLRVQVAQDHAPAEFYLQVDRFNLLPTEQPRIQVTGCNQDSDVQRKLNECLEDHLSESASSSAGLTLSQLLDEVREDQDHRGALVCLAKSCLVLKGPCTTTPLTDWITSGSQALGKAVFTVSGSLLHIPEGEEQILSSTGSSQKARGTSASPSHMPLEESGASVSLLSALATSDPGQMDSSQSPPAVGSTSPRAQAPTSPPCNSTPSSLLLNCSPSLSPLHPAPRSHQSCETRAQAPKLEFQCSFKKRQLLPRTSAQELCSVWEPPERHRDTSAFQYKYETPSASLHTQVQTARLSPQLVAWALNIVMESESELTQV
For the molecule B4, the binding result in assay [1] and in assay [2] was “binds” in each case.

B5: TERF1 (mouse shelterin member) (protein, UniProt P70371 1-421)
chain: MAETVSSAARDAPSREGWTDSDSPEQEEVGDDAELLQCQLQLGTPREMENAELVAEVEAVAAGWMLDFLCLSLCRAFRDGRSEDFRRTRDSAEAIIHGLHRLTAYQLKTVYICQFLTRVASGKALDAQFEVDERITPLESALMIWNSIEKEHDKLHDEIKNLIKIQAVAVCMEIGSFKEAEEVFERIFGDPEFYTPLERKLLKIISQKDVFHSLFQHFSYSCMMEKIQSYVGDVLSEKSSTFLMKAATKVVENEKARTQASKDRPDATNTGMDTEVGLNKEKSVNGQQSTETEPLVDTVSSIRSHKNALSQLKHRRAPSDFSRNEARTGTLQCETTMERNRRTSGRNRLCVSENQPDTDDKSGRRKRQTWLWEEDRILKCGVKKYGEGNWAKILSHYKFNNRTSVMLKDRWRTMKRLKLIS
On to B5, for which the binding entry in assay [1] and in assay [2] was “binds” each time.

B6: TERF1, P54274 1-439 (protein)
chain: MAEDVSSAAPSPRGCADGRDADPTEEQMAETERNDEEQFECQELLECQVQVGAPEEEEEEEEDAGLVAEAEAVAAGWMLDFLCLSLCRAFRDGRSEDFRRTRNSAEAIIHGLSSLTACQLRTIYICQFLTRIAAGKTLDAQFENDERITPLESALMIWGSIEKEHDKLHEEIQNLIKIQAIAVCMENGNFKEAEEVFERIFGDPNSHMPFKSKLLMIISQKDTFHSFFQHFSYNHMMEKIKSYVNYVLSEKSSTFLMKAAAKVVESKRTRTITSQDKPSGNDVEMETEANLDTRKSVSDKQSAVTESSEGTVSLLRSHKNLFLSKLQHGTQQQDLNKKERRVGTPQSTKKKKESRRATESRIPVSKSQPVTPEKHRARKRQAWLWEEDKNLRSGVRKYGEGNWSKILLHYKFNNRTSVMLKDRWRTMKKLKLISSDSED
As to B6, the binding entry in assay [4] is “binds”.

B7: TERF2IP (protein, UniProt Q9NYB0 1-399)
chain: MAEAMDLGKDPNGPTHSSTLFVRDDGSSMSFYVRPSPAKRRLSTLILHGGGTVCRVQEPGAVLLAQPGEALAEASGDFISTQYILDCVERNERLELEAYRLGPASAADTGSEAKPGALAEGAAEPEPQRHAGRIAFTDADDVAILTYVKENARSPSSVTGNALWKAMEKSSLTQHSWQSLKDRYLKHLRGQEHKYLLGDAPVSPSSQKLKRKAEEDPEAADSGEPQNKRTPDLPEEEYVKEEIQENEEAVKKMLVEATREFEEVVVDESPPDFEIHITMCDDDPPTPEEDSETQPDEEEEEEEEKVSQPEVGAAIKIIRQLMEKFNLDLSTVTQAFLKNSGELEATSAFLASGQRADGYPIWSRQDDIDLQKDDEDTREALVKKFGAQNVARRIEFRKK
For the molecule B7, the binding entry in assay [1], in assay [2] and in assay [3] was “binds” throughout.
